According to patent publication US9200017B2, “Multimodal imaging of fibrin” (The General Hospital Corporation, priority 2009, dated 2015):
At least one compound was matched to its structure with a doubt left. Positions of bridges follow the written chain, without caps; N, C: chain ends. Non-standard residues stand in square brackets, D forms with d. Residues, ends and D or L forms follow the SMILES beside them. *: point of attachment. X2 = O=C(O)CN1CCN(CC(=O)O)CCN(C(CCC(=O)NCc2cccc(CN*)c2)C(=O)O)CCN(CC(=O)O)CC1; DOTAGA = O=C(O)CN1CCN(CC(=O)O)CCN(C(CCC(=O)*)C(=O)O)CCN(CC(=O)O)CC1; Tyr(3-Cl) = N[C@@H](Cc1ccc(O)c(Cl)c1)C(=O)O; Hyp = O=C(O)[C@@H]1C[C@@H](O)CN1

Key:
[1] = target: T1, Human fibrin (Homo sapiens, UniProt P02671+P02675+P02679); assay: Binding to human fibrin, dried fibrin microtiter plate, stoichiometric binding model; conditions: dried human fibrin about 2.5 mg/mL, compound 0.1 to 50 μM, 2 h; read-out: Kd, first binding event
T1 construct: thrombin cleaves fibrinopeptides on fibrinogen resulting in an end-to-end polymerization to give the polymer fibrin; Human fibrinogen (American Diagnostica) was dialyzed; purchased American Diagnostica
T1 sequence (P02671 36-629 limits assumed): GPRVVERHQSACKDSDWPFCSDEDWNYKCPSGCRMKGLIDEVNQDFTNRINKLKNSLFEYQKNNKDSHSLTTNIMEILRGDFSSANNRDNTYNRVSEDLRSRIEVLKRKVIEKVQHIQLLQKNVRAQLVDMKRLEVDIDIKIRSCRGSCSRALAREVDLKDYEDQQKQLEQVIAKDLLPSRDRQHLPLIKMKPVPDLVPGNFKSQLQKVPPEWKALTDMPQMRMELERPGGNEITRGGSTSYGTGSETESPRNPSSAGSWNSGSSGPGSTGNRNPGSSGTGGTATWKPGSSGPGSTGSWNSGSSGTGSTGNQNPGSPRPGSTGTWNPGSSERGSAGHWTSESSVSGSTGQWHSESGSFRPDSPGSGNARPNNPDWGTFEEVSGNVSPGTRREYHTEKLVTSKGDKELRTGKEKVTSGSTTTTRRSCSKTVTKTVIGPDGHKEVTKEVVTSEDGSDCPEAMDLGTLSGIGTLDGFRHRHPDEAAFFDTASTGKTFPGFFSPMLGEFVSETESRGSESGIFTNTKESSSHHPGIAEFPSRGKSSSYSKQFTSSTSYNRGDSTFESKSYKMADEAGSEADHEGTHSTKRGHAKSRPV
T1 sequence (P02675 45-491 limits assumed): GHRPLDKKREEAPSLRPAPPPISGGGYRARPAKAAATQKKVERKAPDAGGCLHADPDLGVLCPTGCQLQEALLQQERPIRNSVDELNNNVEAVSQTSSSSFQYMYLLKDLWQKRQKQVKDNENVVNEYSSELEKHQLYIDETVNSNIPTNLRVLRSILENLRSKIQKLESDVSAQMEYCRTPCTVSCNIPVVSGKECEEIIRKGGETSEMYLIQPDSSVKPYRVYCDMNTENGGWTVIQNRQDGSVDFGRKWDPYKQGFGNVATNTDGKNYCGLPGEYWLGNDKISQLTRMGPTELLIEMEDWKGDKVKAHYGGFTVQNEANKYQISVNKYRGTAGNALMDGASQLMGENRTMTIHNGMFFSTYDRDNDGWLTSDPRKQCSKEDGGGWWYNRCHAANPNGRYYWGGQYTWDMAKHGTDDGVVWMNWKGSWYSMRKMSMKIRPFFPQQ
T1 sequence (P02679 27-437 isoform P02679-2 limits assumed): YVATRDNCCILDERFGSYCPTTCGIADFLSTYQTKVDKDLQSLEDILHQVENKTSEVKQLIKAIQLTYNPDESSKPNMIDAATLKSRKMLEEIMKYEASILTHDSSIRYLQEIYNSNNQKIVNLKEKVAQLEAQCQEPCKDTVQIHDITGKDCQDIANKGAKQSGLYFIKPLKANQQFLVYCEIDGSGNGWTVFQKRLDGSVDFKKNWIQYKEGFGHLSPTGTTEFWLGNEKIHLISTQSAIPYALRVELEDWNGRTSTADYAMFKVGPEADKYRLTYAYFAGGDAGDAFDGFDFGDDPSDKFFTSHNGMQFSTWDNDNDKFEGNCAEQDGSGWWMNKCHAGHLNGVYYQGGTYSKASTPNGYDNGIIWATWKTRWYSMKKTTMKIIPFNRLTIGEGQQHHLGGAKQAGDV
Method: Binding can also be assessed by a dried fibrin assay. Here, purified fibrinogen (2.5 mg/mL; 7 μM fibrin) is clotted with thrombin and dried to a thin film in wells of a microtiter plate. The resulting clots bind to the plate without loss of protein. The clots are rehydrated with buffer containing known concentrations of peptide. After incubation at 37° C. for 2 hr, the concentration of peptide in the supernatant ([peptide]free) is determined (e.g. by HPLC or if the peptide is labeled with a fluorophore by fluorescence, or if labeled by a radionuclide concentration is determined by radioactivity). The concentration of fibrin-bound peptide ([peptide]bound) is calculated by subtraction ([peptide]bound)=[peptide]total−[peptide]free). A dissociation constant (Kd) for fibrin binding can be determined by fitting a plot of [peptide]bound versus [peptide]free to either a stoichiometric (see e.g. Nair et al., Angew Chem Int Ed 2008 47:4918-21) or equivalent binding sites model (see e.g. Overoye-Chan et al. J Am Chem Soc 2008 130:6025-39). […]
Solutions of compound ranging from 0.1 to 50 μM were added to each of the wells of the dried fibrin microtiter plate, and the plate was shaken for 2 h. After incubation, solution was removed and the concentration of unbound compound was determined from its radioactivity or by ICP-MS. […]

[2] = target: T2, fibrin gel (Homo sapiens, UniProt P02671+P02675+P02679); assay: Phantom study with fluorescence imaging in fibrinogen solution and fibrin gel; conditions: 50 nM in 2 mg/mL fibrin gel
T2 construct: thrombin cleaves fibrinopeptides on fibrinogen resulting in an end-to-end polymerization to give the polymer fibrin; Fibrin is a fibrillar protein derived from the soluble plasma protein fibrinogen
T2 sequence (P02671 36-629 limits assumed): T1 sequence (P02671 36-629 limits assumed)
T2 sequence (P02675 45-491 limits assumed): T1 sequence (P02675 45-491 limits assumed)
T2 sequence (P02679 27-437 isoform P02679-2 limits assumed): T1 sequence (P02679 27-437 isoform P02679-2 limits assumed)
Method: A 10 mM solution of fluorescein was prepared in ethanol by adding 0.0113 g of fluorescein to 3 mL EtOH. This solution was diluted in water to prepare a 9.99 μM solution. Also, a dilute solution of GdDOTA-cyclic-FBP-p-XD-FITC was prepared with a final concentration of 8.55 μM. Four phantoms were prepared in 1 mL glass tubes. Each phantom contained fibrinogen at a final concentration of 2 mg/mL, 50 pmol of GdDOTA-cyclic-FBP-p-XD-FITC or fluorescein, at a total volume of 1 mL. In two of the phantoms, fibrin gels were prepared by adding CaCl2 and thrombin to a final concentration of 7 mM and 4 U/mL, respectively. Once the clots had formed, the mixture was centrifuged and the clots settled to the bottom. The 4 phantoms were labeled: A) GdDOTA-cyclic-FBP-p-XD-FITC in fgn; B) GdDOTA-cyclic-FBP-p-XD-FITC in fbn gel; C) fluorescein in fbn gel D) fluorescein in fgn. The phantoms were imaged with an IVIS Spectrum imager.

Compound | Kd [1] | Fluorescence intensity distribution between fibrin clot and liquid [2]
CC[C@H](C)[C@H](NC(=O)[C@H](Cc1ccc(O)cc1)NC(=O)[C@@H]1CSSC[C@H](NC(=O)[C@@H](CCC(=O)O)NC(=O)[C@H](Cc2ccc(O)cc2)NC(=O)CCC(C(=O)O)N2CCN(CC(=O)O)CCN(CC(=O)O)CCN(CC(=O)O)CC2)C(=O)N2C[C@H](O)C[C@H]2C(=O)N[C@@H](Cc2ccc(O)c(Cl)c2)C(=O)NCC(=O)N[C@@H](CC(C)C)C(=O)N1)C(=O)N[C@@H](CCC(N)=O)C(=O)NCc1cccc(CNC(=O)CCC(C(=O)O)N2CCN(CC(=O)O)CCN(CC(=O)O)CCN(CC(=O)O)CC2)c1 (some centres unmarked) [Compound 5, Cu2-bis-(DOTAGA(OH)4)-FBP-mXD] ({DOTAGA}-Y[dE]C[Hyp][Tyr(3-Cl)]GLCYIQ-X2; disulfide 3-8 (inferred); N-terminus and C-terminus assumed) | 9 ± 1.9 µM | 
O=C1OC2(c3ccc(O)cc3Oc3cc(O)ccc32)c2ccccc21 [fluorescein, reference compound] |  | little or no binding
